No constants are given. Whether binding was seen depends on the method and setting. In cells and extracts the contact can be indirect. Some binding calls cover weakened binding; strength is not graded here. Where a sequence is shown, tags or fusion partners need not be part of it.

Amino acid sequences for entries named in this document (tags omitted). A change or cut given only in a name is not applied to a line headed by its entry.
UniProt Q9LS94: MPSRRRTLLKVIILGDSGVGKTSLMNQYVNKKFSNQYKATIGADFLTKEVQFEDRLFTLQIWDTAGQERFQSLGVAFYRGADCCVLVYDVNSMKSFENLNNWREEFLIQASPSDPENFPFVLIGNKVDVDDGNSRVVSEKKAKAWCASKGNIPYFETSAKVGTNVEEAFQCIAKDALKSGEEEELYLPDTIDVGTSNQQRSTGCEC
UniProt O04157: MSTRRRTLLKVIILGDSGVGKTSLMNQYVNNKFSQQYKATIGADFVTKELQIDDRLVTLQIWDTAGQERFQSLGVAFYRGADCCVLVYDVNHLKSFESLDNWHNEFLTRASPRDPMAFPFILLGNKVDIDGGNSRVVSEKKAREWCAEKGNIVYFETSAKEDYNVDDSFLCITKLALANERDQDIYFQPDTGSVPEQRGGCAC
UniProt Q9XI98: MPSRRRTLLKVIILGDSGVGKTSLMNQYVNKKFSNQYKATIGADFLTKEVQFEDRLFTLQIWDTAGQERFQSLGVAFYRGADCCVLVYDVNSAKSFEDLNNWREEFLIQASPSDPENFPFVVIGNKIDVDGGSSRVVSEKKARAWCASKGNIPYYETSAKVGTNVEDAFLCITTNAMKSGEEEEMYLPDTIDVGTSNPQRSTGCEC
UniProt Q9C820: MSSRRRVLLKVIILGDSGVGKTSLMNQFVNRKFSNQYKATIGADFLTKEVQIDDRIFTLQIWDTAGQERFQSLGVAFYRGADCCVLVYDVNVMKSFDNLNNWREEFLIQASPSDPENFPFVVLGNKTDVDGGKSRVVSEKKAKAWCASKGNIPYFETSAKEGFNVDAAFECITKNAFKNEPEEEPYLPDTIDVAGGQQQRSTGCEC

The target in one experiment is T1, ATG8h fused to cLUC (Arabidopsis thaliana) (UniProt Q8S925).
T1 sequence: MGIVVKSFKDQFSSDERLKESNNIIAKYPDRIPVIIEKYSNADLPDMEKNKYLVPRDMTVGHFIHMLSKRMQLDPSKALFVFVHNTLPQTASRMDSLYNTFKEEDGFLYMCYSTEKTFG
The experiment can be described thus: split reporter.
Take RABG3f-nLUC (from UniProt Q9LS94 1-206): the binding result is reported as “binds”.

Another experiment deals with T2, cLUC-ATG8a (Arabidopsis thaliana) (UniProt Q8LEM4).
T2 sequence: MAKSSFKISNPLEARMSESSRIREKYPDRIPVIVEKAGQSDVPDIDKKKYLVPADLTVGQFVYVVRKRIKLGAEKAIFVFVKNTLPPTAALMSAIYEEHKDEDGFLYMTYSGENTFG
The experiment can be described thus: split reporter.
As to “RABG3b fused to nLUC (from UniProt O04157 1-203)”, the binding entry was “binds”.
The same measure, in the same setting: for “RABG3f^mAIM1 (F96A L99A) fused to nLUC (from UniProt Q9LS94 1-206)” the value was “binds”; for “RABG3e fused to nLUC (from UniProt Q9XI98 1-206)”, “binds”.
Same read-out and setting: to RABG3f-nLUC (from UniProt Q9LS94 1-206) belongs “binds”; to “RABG3f(DN)-nLUC, GDP-bound, dominant-negative variant (T22N) (from UniProt Q9LS94 1-206)”, “binds”.
The same measure, in the same setting: for “RABG3d fused to nLUC (from UniProt Q9C820 1-206)” the value was “binds”; for “RABG3f^mAIM2 (F169A I172A) fused to nLUC (from UniProt Q9LS94 1-206)”, “binds”.
As to “RABG3f(CA)-nLUC, GTP-bound, constitutive active variant (Q67L) (from UniProt Q9LS94 1-206)”, the binding entry is reported as “binds”.

Source of the values: doi:10.1101/2025.01.01.631040.
